# Results reported in PubChem BioAssay AID2685 (National Center for Advancing Translational Sciences (NCATS), 2010).
# The list shows a part of the results. The main result of the screen is listed elsewhere. These columns were measured beside it and carry no call. Compounds called inactive in the main read-out are mostly missing here. Potencies come from curve fits of mixed quality, noted in brackets.
# Assay: qHTS Assay for Lipid Storage Modulators in Drosophila S3 Cells;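 as to cell number change: cells counted by Cell Tracker Red CMTPX staining in the red channel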
# Conditions: BODIPY lipid droplet fluorescence, 18-24 h; for cell number change: measured here: cell count max response, cells fed with added oleic acid
# Method in brief: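 Laser-scanning cytometry quantifies lipid droplet accumulation (500–530 nm total intensity; droplet/cell object ratio) in oleic acid-fed (400 uM added) Drosophila S3 cells treated with a concentration series. 20 uM Triacsin C defined 100% inhibition.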
# [1] = measured here: cell number channel AC50, cells fed with added oleic acid
# [2] = measured here: lipid fluorescence (Fed channel) AC50, cells fed with added oleic acid
Structure (SMILES),cell number change [%],AC50 [1],AC50 [2]
O=C1NC(=Nc2ccccc2)SC1Cc1ccccc1 (configuration not stated),7.07,–,–
COc1ccc(-c2nc3cnccn3c2NCc2ccccc2)cc1SC1CCCCC1,-41.5,"16400 nM [falling, single point]","20600 nM [falling, partial curve]"
COc1ccc(CNc2nc3nc(C)c(Cl)c(=O)n3[nH]2)cc1OC,-15.9,–,"23100 nM [falling, partial curve]"
Cc1sc2nc(CN(C(=O)NC3CCCCC3)C3CCCC3)[nH]c(=O)c2c1C,34.6,–,"1300 nM [rising, full curve]"
Cc1cc(C)n(CC(C)NCc2cn[nH]c2-c2cccc3ccccc23)n1 (configuration not stated),2.79,–,"731 nM [rising, full curve, poor fit]"
CCCC(=O)C1=C(N2CCCC2)CC(C)(C)C(C(=O)OC)C1=O (configuration not stated),38.7,"1300 nM [rising, full curve, poor fit]","326 nM [rising, full curve, poor fit]"
O=C(COc1ccc(Cl)cc1)N1CCCCCCC1,-18.1,–,–
O=C(NCCOc1ccccc1Cl)C(=O)NCCOc1ccccc1Cl,36.3,"206 nM [rising, full curve, poor fit]",–
Cc1ccc(C)c(NC(=O)CSc2ccc(-c3cccs3)nn2)c1,44.8,"29100 nM [rising, single point]","16400 nM [falling, single point]"
COc1ccccc1C(=O)NCc1nnc(SC(C)C(=O)Nc2nccs2)n1C (configuration not stated),–,–,"580 nM [falling, single point]"
CC(=O)Nc1ccc(N/C(N)=N/c2nc(C)cc(C)n2)cc1,18.4,–,"13000 nM [rising, partial curve]"
Cc1cnn(-c2nc(-c3cccs3)cc(C(F)(F)F)n2)c1,-2.9,–,"32600 nM [falling, single point]"
COc1ccc(SCC(=O)c2cc(C)c(OC(=S)N(C)C)c(C)c2)cc1,36.2,"5170 nM [rising, partial curve]","14600 nM [rising, partial curve]"
O=C(CCCCn1c(=O)c2ccccc2n(CC(=O)Nc2cccc(F)c2)c1=O)NCc1ccco1,-25,–,"1160 nM [rising, single point]"
Cc1ccc(NC(=O)c2ccc(S(=O)(=O)NCC3CCCO3)cc2)cc1 (configuration not stated),–,–,"6510 nM [rising, single point]"
CCOc1ccc(NC(=O)CS(=O)CC(=O)Nc2cccnc2)cc1 (configuration not stated),8.97,–,"5170 nM [falling, single point]"
CCOC(=O)N1CCN(C(=O)CSc2nnc(CNC(=O)c3c(F)cccc3Cl)o2)CC1,–,–,"6510 nM [falling, partial curve]"
COc1cc2c(cc1OC)C(C(=O)O)C(c1ccc(C)o1)N(C)C2=O (configuration not stated),-6.23,"1300 nM [falling, full curve]",–
Cc1cc(C)c(S(=O)(=O)N2CCN(C(=O)c3cc(=O)[nH]c4ccccc34)CC2)c(C)c1,8.71,–,"1840 nM [rising, partial curve, poor fit]"
CCc1nn(CC(=O)NCCCN2CCN(C)CC2)c(=O)c2cc3sccc3n12,4.13,–,"16400 nM [rising, single point]"

# Among those listed so far, 4 have a Cl atom.
Structure (SMILES),cell number change [%],AC50 [1],AC50 [2]
COc1ccc(CNc2nc3nc(C)c(Cl)c(=O)n3[nH]2)cc1OC,-15.9,–,"23100 nM [falling, partial curve]"
O=C(COc1ccc(Cl)cc1)N1CCCCCCC1,-18.1,–,–
O=C(NCCOc1ccccc1Cl)C(=O)NCCOc1ccccc1Cl,36.3,"206 nM [rising, full curve, poor fit]",–
CCOC(=O)N1CCN(C(=O)CSc2nnc(CNC(=O)c3c(F)cccc3Cl)o2)CC1,–,–,"6510 nM [falling, partial curve]"

# Following part.

Structure (SMILES),cell number change [%],AC50 [1],AC50 [2]
O=C1c2c(Br)c(Br)c(Br)c(Br)c2C(=O)N1c1ccccn1,-51.4,"18400 nM [falling, single point]","2910 nM [falling, full curve]"
CCN(C(=O)COC(=O)CSc1ccc(F)cc1)c1c(N)n(Cc2ccccc2)c(=O)[nH]c1=O,2.98,–,–
Cc1cc(NS(=O)(=O)c2ccc(NC(=O)CCCOc3ccccc3C)cc2)no1,1.28,–,"116 nM [falling, single point]"
CCC(=O)OCCn1c(=O)c2ccccc2c2ccccc2c1=O,-14.5,–,"2590 nM [falling, full curve]"
COc1ccc(-n2nc(C(=O)NCC(=O)N3CCN(c4ccccc4F)CC3)c3ccccc3c2=O)cc1OC,3.85,"5800 nM [rising, partial curve, poor fit]",–
Cn1nc(C(=O)NCc2ccccc2CN2CCCC2)c2ccccc2c1=O,4.82,–,–
COCCNC(=O)c1cc(-c2ccccc2)n(Cc2cc(C)no2)n1,27.5,–,–
O=C(O)COc1ccc(Oc2ccccc2)cc1,-57.5,"20600 nM [falling, partial curve, poor fit]","16400 nM [falling, partial curve]"
S=C(Nc1ccc2nsnc2c1)N1CCCCC1,-0.784,–,"4.61 nM [falling, full curve, poor fit]"
O=C(O)CCc1nnc2n(Cc3ccc(F)cc3)c(=O)c3ccccc3n12,11,–,–
CC(=O)c1cc2c(cc1NS(=O)(=O)c1ccc3c(c1)OCCO3)OCO2,13.7,–,"1460 nM [rising, partial curve]"
O=C(CCCc1c[nH]c2ccccc12)N1CCN(c2ccc(N3CCOCC3)nn2)CC1,-31,"18400 nM [falling, single point]","32600 nM [falling, single point]"
O=[N+]([O-])c1ccc(Oc2cccc(Br)c2)c2ccncc12,41.3,"4110 nM [rising, full curve]","580 nM [falling, single point]"
COc1ccc(NC(=O)CCC(=O)c2ccc(Cl)cc2)cn1,15,–,"291 nM [rising, full curve, poor fit]"
C=CCOC(=O)C1=C(C)NC(SCC(=O)OCC)=C(C#N)C1c1ccc(C)cc1 (configuration not stated),-20.2,–,"29100 nM [falling, single point]"
Cc1ccccc1C(=O)Nc1ccccc1C(=O)N1CCC(C)CC1,-19.2,–,"130 nM [falling, full curve]"
NS(=O)(=O)c1ccc(Nc2nc(-c3ccccc3)cs2)cc1,–,"1840 nM [rising, partial curve]",–
COCCNc1cc(C)nc2cc(-c3ccc(C)cc3)nn12,–,–,"6510 nM [rising, partial curve, poor fit]"
Cn1c(SCC(=O)N2CCCC2=O)nc2ccccc21,-44.6,"164 nM [falling, full curve, poor fit]","116 nM [falling, full curve]"
C=CCN1C(=O)C2(C(C(=O)c3ccc(C)o3)=C(O)C(=O)N2CCCN2CCOCC2)c2ccccc21 (configuration not stated),-2.37,–,"206 nM [rising, partial curve, poor fit]"

Structure (SMILES),cell number change [%],AC50 [1],AC50 [2]
Cc1cccc(NC(=O)c2cc(S(=O)(=O)N3CCOCC3)cn2C)c1C,19.3,–,"29100 nM [rising, single point]"
Cc1ccc2nc(-c3ccccn3)cc(C(=O)N3CCN(c4ncccn4)CC3)c2c1,32.4,"820 nM [rising, full curve]","731 nM [rising, full curve]"
CCc1ccccc1N1CC23C=CC(O2)C(C(=O)OC)C3C1=O (configuration not stated),-34.9,"259 nM [falling, full curve, poor fit]","920 nM [falling, full curve]"
CN1C(=O)C(CC(=O)Nc2ccc3c(c2)Cc2ccccc2-3)N(C)C1=O (configuration not stated),-20.6,–,–
COc1ccc(OC)c(NC(=O)Nc2cccc(Cn3cccn3)c2)c1,-94.8,"29100 nM [falling, single point]","29100 nM [falling, single point]"
O=C(COC(=O)c1c2c(nc3ccccc13)/C(=C/c1ccco1)CC2)NC1CCCC1,5.91,"7310 nM [falling, single point]","6510 nM [falling, single point]"
CC1CCCN(CC(=O)N2c3ccccc3Sc3ccccc32)C1 (configuration not stated),86.4,"2590 nM [rising, full curve]",–
COc1ccccc1N(C1=NCCCS1)S(=O)(=O)c1ccc(C(C)(C)C)cc1,-19.8,–,"9200 nM [falling, partial curve]"
COC(=O)CCNC(=O)Cc1ccc(S(=O)(=O)N2CCCCC2)s1,-10.4,–,–
COc1cc(NC(=O)CSc2nccc(=O)[nH]2)c(C)cc1[N+](=O)[O-],118,"18400 nM [rising, single point]",–
CCOCCCNC(=O)COC(=O)/C=C/c1ccc(S(=O)(=O)N2CCc3ccccc32)cc1,13.1,"1160 nM [rising, single point]","920 nM [rising, full curve, poor fit]"
O=C(Nc1ccc(Cl)cc1)Nn1cnc2ccccc2c1=O,7.08,–,"1160 nM [rising, single point]"
Cc1ccc(CSc2nnc(-c3ccc(S(=O)(=O)N4CCCC4)cc3)o2)cc1,–,"58 nM [rising, single point]",–
COc1cccc(N2CCN(C(=O)c3ccc4nc[nH]c4c3)CC2)c1,–,–,"6510 nM [rising, single point]"
COc1ccc(-c2cc(=O)oc3c(C)c(OCC(=O)Nc4cccnc4)ccc23)cc1,18.7,–,"29100 nM [falling, single point]"
Cn1c(SCC(=O)NC2CCCC2)nnc1-c1ccncc1,-21.5,–,"411 nM [falling, full curve, poor fit]"
Cc1ccc2c(=O)c(C(=O)NCc3cccs3)c[nH]c2c1,-2.57,–,"1300 nM [rising, partial curve]"
COC(=O)CC1=NN(c2ccccc2)C(=O)/C1=C\c1ccc(OC)cc1,-22.8,–,–
CCc1ccc(N(CC(=O)Nc2ccc(NC(C)=O)cc2)S(=O)(=O)c2ccccc2)cc1,13.9,"6510 nM [rising, single point]","2060 nM [rising, partial curve, poor fit]"
